# In PubChem BioAssay AID1347423 (Functional Genomics Laboratory (NCATS/FGL), 2020):
# The whole screen tested about 52,000 sequences, of which about 210 (0.4%) were called active.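 Rule for the calls: active = gene whose silencing raises cell survival under the drug, median off-target-corrected z-score across its silencing RNAs 2 or more; inactive = the rest.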 Some of the results follow.
# Assay: Resistance to Poly (ADP-Ribose) Polymerase inhibitor: Gene Identification via Genome-wide siRNA Screen
# Conditions: mouse BRCA2 R2336H ES cells, olaparib, CellTiter-Glo viability; hits give high values
# Method in brief: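 Genome-wide siRNA screen (3 siRNAs/gene, 20 nM) in mouse ES cells carrying hypomorphic BRCA2 R2336H; olaparib 500 nM added 48 h post-transfection, CellTiter-Glo viability 72 h later. Normalized to plate-median negative control; MAD z-scores, gene median, seed-adjusted.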
row,Sequence,z-score
1,GCACAUUGGGAUAGCUGCATT against 4732463G12Rik,inactive: -1.93
2,GCAGGAAUCUAAUCUGCUGTT against Gpd1,inactive: 0.333
3,GCAUUGUCGUGUCUUCUCUTT against 2610036D13Rik,inactive: -2.48
4,GAUAUAAUUACUGAACCACTT against 4930481M05,inactive: 0.66
5,GGACAGAUGCCAUCUCAGUTT against Anxa7,inactive: -0.122
6,GGUUGCCUCAACUCCAUUGTT against Olfr1412,inactive: -1.31
7,GGCCCAGUGACUAUGGAAUTT against E130307M08Rik,inactive: -1.32
8,GGAGAAGAAGAAAUCCAAATT against Scn11a,inactive: -1.11
9,UGGACUGUAUUGAAAACCATT against AV284857,inactive: -0.016
10,GGCGAAGAAGAAUAAAAGATT against Lyar,inactive: 0.817
11,GGAUGACUAUGUGAAUAUATT against 4933404G15Rik,inactive: -0.856
12,GCCUGACUACUGAAGCUUGTT against 1810029B16Rik,inactive: 0.663
13,GGCAGAAAAGAUGGAAAAUTT against B130050I23Rik,inactive: 0.469
14,CCCAGGCUCCUAUUUGUUUTT against Calml3,inactive: 0.446
15,GGUCAAUGAGUUAGCUAUATT against Olfr1132,inactive: 0.548
16,GGCCUGGUAUAUAUCUGUCTT against Olfr6,inactive: 0.106
17,GGAUGUUUUAUUUCCGUACTT against 2310057D15Rik,inactive: 0.412
18,GGAACUUUCCUUUUUUGUCTT against Serpinb5,inactive: -0.565
19,CGAAUCCUCACUAAAUUGGTT against Cnn3,inactive: 1.72
20,GGCGCAAAUACUUCUUCAUTT against Nrg1,inactive: 1.4
21,GGCCUCAAGAACUUUUUGCTT against 9830165K03Rik,inactive: -0.113
22,GCAUUUGAACAGUGUGCCATT against Arch,inactive: 0.263
23,GCUGACCUUCACUACUAUUTT against Lass6,inactive: -0.847
24,GGAUCUCGUGCGAAAAAAATT against Olfr809,inactive: -0.802
25,GGUGAUCCAGCUUUCUUGGTT against Tiaf2,inactive: 0.147
26,GGCUCUCCUGAUCCAAGCUTT against 1200015A19Rik,inactive: 0.682

row,Sequence,z-score
1,GGAGCUCACCAAAAUAGCUTT against Akr1c21,inactive: 0.54
2,GCCUUAAUGAGGGUUAUGCTT against Fbp1,inactive: 1.29
3,GCAGAAGAAGAAGGGUUCCTT against Emx1,inactive: -0.354
4,CCAGUAUAUUCUGAGGGUUTT against Isl1,inactive: 0.841
5,GCUCUUAACAACGGGUGGATT against A130079P16Rik,inactive: -0.124
6,CCCUAUACGACUAGCUCUGTT against 4732406D01Rik,inactive: 1.06
7,GCCAGCUUACGAACAUUAATT against 2810465F10Rik,inactive: -0.0764
8,UCACCGAAUGUCUUCUUCUTT against Olfr47,inactive: 1.45
9,CCUUGGACUUGAGUUCCAATT against D630042P16Rik,inactive: -0.645
10,GGACAACAGCAAAACAUCUTT against Atoh1,inactive: 2.44
11,GGAUGAAUUGAUUGAGAUCTT against Sv2a,inactive: -0.0207
12,GGUGAAUCGGUUUUCAGAUTT against C79267,inactive: 0.474
13,GGAACCUGCAUGAUAUAGGTT against Zfp617,inactive: 0.777
14,GGAAUGUCUAUCACAAUGGTT against V1re8,inactive: 0.128
15,GCUACUCCAAGGUGAAAGUTT against Sstk,inactive: 0.957
16,GGAGGAGUGUGUGAAAGGATT against Terf2ip,inactive: -0.301
17,GGACUUAAAAGAGGAGAUCTT against 4933434E20Rik,inactive: -0.477
18,GGCUUACUACGACACAGACTT against Clk2,inactive: -0.232
19,GGUGUUUACACCCAGCACCTT against 4932411E22Rik,inactive: 0.268
20,CCGUCAUGAUCUUAAAAGATT against Slc30a8,inactive: 1.15
21,GCAUUAGAUCAGACCAUUUTT against 1500035H01Rik,inactive: 2
22,GCUGUCACUUUGAAUCCCUTT against Nrg1,inactive: -0.309
23,GGACUUAGCUUUGUUUCCUTT against 1110017C15Rik,inactive: -0.854
24,GCAAACGAAAAACAGUGACTT against Nsf,inactive: -1.13
25,GGGCUAUGCAAAUUUACAATT against Kdelc1,inactive: -1.14
26,GGAACAGUCCUGUACACCCTT against Gp49a,inactive: 0.807

# Four entries picked at random from the list so far, as already listed:
row,Sequence,z-score
14,GGAAUGUCUAUCACAAUGGTT against V1re8,inactive: 0.128
22,GCUGUCACUUUGAAUCCCUTT against Nrg1,inactive: -0.309
1,GGAGCUCACCAAAAUAGCUTT against Akr1c21,inactive: 0.54
25,GGGCUAUGCAAAUUUACAATT against Kdelc1,inactive: -1.14

# Reformatted bar-delimited: entries from further up
row | Sequence | z-score
22 | GCUGUCACUUUGAAUCCCUTT against Nrg1 | inactive: -0.309
23 | GGACUUAGCUUUGUUUCCUTT against 1110017C15Rik | inactive: -0.854
24 | GCAAACGAAAAACAGUGACTT against Nsf | inactive: -1.13
25 | GGGCUAUGCAAAUUUACAATT against Kdelc1 | inactive: -1.14

# The results go on:

row,Sequence,z-score
1,CCAUCAGAUUAUCUAUCUATT against Mapk11,inactive: 0.433
2,GGUAUAGCUUGGGCUAUAGTT against Olfr92,inactive: 0.0939
3,UCUUCGGUCAACUCUAUGGTT against Olfr969,inactive: -2.35
4,CCUUUUUGUUGUCUCACUATT against Olfr116,inactive: -0.201
5,GGUGUGUGCCUUUUAUUUUTT against 2810037C03Rik,inactive: 1.2
6,GGGUUUCUUCAUAACUCUUTT against 6530401P13,inactive: 0.207
7,GGUCAUCCGAUGCUUUGUATT against 4930515G01Rik,inactive: -1.66
8,GGGUCAUUGUUUUUUCUGUTT against 2810037C14Rik,inactive: 0.562
9,GCCGUGCGAUUUAAUGUGGTT against 1500041N16Rik,inactive: 1.18
10,CCACUGCUUACUUCCUGUATT against Ii,inactive: -0.537
11,GGCUCUGGGUGGUAUUCAUTT against Slc5a2,inactive: 2.68
12,GGUCCACAGAUUCUUCUAATT against Zfa,inactive: -0.793
13,GGAGAUUUGUCAGAACCUCTT against Adrbk1,inactive: -0.168
14,GCUUUAAAUAGAGACUAUCTT against Sox30,inactive: 0.795
15,GGAAGAAGCCACCUUUUUUTT against Cd2,inactive: -0.608
16,GGCACUGGAACUAAUAUAUTT against Ormdl2,inactive: -0.262
17,GGUUAUUCCACCUCUUGCCTT against 2310028N02Rik,inactive: 0.145
18,CGGCGGCAACAAUAACAAGTT against BC040774,inactive: -0.274
19,GCACUUAUGGACUUCCAGCTT against Cd2ap,inactive: 0.777
20,GGGUCCUCUCCACAUCAAGTT against A230051G13Rik,inactive: -0.135
21,GGAAGAACAGUUCAGCGGATT against Plekhk1,inactive: 0.238
22,GCCAAAUGAACUAGCAAUATT against Golph2,inactive: 0.628
23,GGAACCUAAACGAACAAGGTT against Col6a2,inactive: 0.445
24,GGAACACAAGCACCUGCAUTT against Corin,inactive: -1.43
25,GGAUCACUGGCACCAAUGUTT against Clca1,inactive: -1.91
26,GGAUUUGUUCAAAUAACAGTT against 2700023B17Rik,inactive: -1.63

row,Sequence,z-score
1,GGAAGAUCGGAGACAAAGUTT against Pmaip1,inactive: -1.04
2,CGGAAUUUGAACGUGUCUUTT against Cdk9,inactive: 0.631
3,GGGCUACCAUAGUGACAAATT against Gja5,inactive: 2.09
4,GGAAGACACAUCACCAAAATT against Chaf1a,inactive: -2.73
5,GCCAUAGCUCGAGACUCUCTT against Tcfap2b,inactive: 0.684
6,GUGGAAGAAGGAAAAGCCCTT against 2310006J04Rik,inactive: 0.116
7,GCUCGAUCAUGGGCCUAUATT against 0610009I22Rik,inactive: -1.84
8,GGGCAGCAAAGAAUUAACUTT against 2810004N20Rik,inactive: -0.568
9,GGAGAGUGACAUCAUCGUATT against AW822216,inactive: -0.104
10,CCAAAACCUCUACCGUUACTT against Cyp3a25,inactive: -0.55
11,GGAGGUCGCUUCCUAUUACTT against Tat,active: 1.26
12,GGAACAAAGACAUUGCUUUTT against Sf3a3,inactive: -2.09
13,GCUGCAACAUGACAUGUCGTT against AU022252,inactive: 2.21
14,GGCCAUCACACACAGAAACTT against Pla2g2f,inactive: 0.622
15,UAUACCUUAGUGCUGAGGGTT against Olfr736,inactive: -0.718
16,GGAGCUGAUCCAGAACAGATT against Ncor2,inactive: 2.68
17,GCCAUAGGAAAUUGCUAUUTT against C130086A10,inactive: 0.34
18,GCCUAGGUUUGAUGAACUATT against Nlgn3,inactive: -0.511
19,GCUUUUGUAUACCUACUGUTT against AL022818,inactive: -0.0986
20,CCAGAGAUGACCGUCUUAATT against Hddc2,inactive: -1.62
21,GGCAAACAAUAAAGUGUGGTT against Bpgm,inactive: 0.0152
22,GGAGGCAGCUCCUAUGAUGTT against Rbm28,inactive: -1.08
23,CGGCACACUAAGAAACGGATT against BC049697,inactive: -0.616
24,GCACUGUUCGUUUUUGUUUTT against Astn1,inactive: -0.273
25,CGACCAGAAGUGGUAUGUCTT against Adra2a,inactive: 1.03
